Results deposited as PubChem BioAssay AID1224830 (NIAID, 2016).
Test: 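Genes whose knock-down alters the TNF-alpha reporter response to LPS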 (primary screen). Cell system: human THP-1 monocytic leukaemia cells, TNF dual-luciferase reporter clone, PMA-differentiated to macrophage-like cells. Reagents: siRNA pool against human genes, 50 nM. Time to read-out: LPS for 4 h, given about 3 days after siRNA transfection. Challenge: bacterial LPS (TLR4 ligand), 10 ng/ml. Measurement: 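TNF firefly reporter luminescence divided by renilla, normalised to the plate median, then turned into a robust z-score for each replicate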. Direction: TNF reporter robust z-score: higher = stronger TNF reporter response to LPS. Active means: 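Each well counts as active if its z-score is over 2.8 or under -1.5; controls are left without a call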.
Shown is a random part of about 18,000 reagents. About 2,900 of them (16%) were called active. 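Calls are made per well; low scores hint the gene aids the LPS response, high scores that it dampens it.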 Repeated entries: four replicate wells of each siRNA pool.

| Gene | PubChem SID | TNF reporter robust z-score | Call |
| --- | --- | --- | --- |
| RSRP1 (arginine and serine rich protein 1) | SID315458232 | 0.24 | inactive |
| RSRP1 (arginine and serine rich protein 1) | SID315458232 | -0.23 | inactive |
| RSRP1 (arginine and serine rich protein 1) | SID315458232 | 0.16 | inactive |
| RSRP1 (arginine and serine rich protein 1) | SID315458232 | -0.05 | inactive |
| CYP4F8 (cytochrome P450 family 4 subfamily F member 8) | SID315454743 | -1.18 | inactive |
| CYP4F8 (cytochrome P450 family 4 subfamily F member 8) | SID315454743 | -1.4 | inactive |
| CYP4F8 (cytochrome P450 family 4 subfamily F member 8) | SID315454743 | -0.51 | inactive |
| CYP4F8 (cytochrome P450 family 4 subfamily F member 8) | SID315454743 | -0.96 | inactive |
| H3C8 (H3 clustered histone 8) | SID315452506 | 0.61 | inactive |
| H3C8 (H3 clustered histone 8) | SID315452506 | 0.75 | inactive |
| H3C8 (H3 clustered histone 8) | SID315452506 | 1.63 | inactive |
| H3C8 (H3 clustered histone 8) | SID315452506 | -0.33 | inactive |
| STH (saitohin) | SID315463402 | 0.24 | inactive |
| STH (saitohin) | SID315463402 | 0.84 | inactive |
| STH (saitohin) | SID315463402 | 0.46 | inactive |
| STH (saitohin) | SID315463402 | -0.93 | inactive |
| TMCC2 (transmembrane and coiled-coil domain family 2) | SID315453668 | 1.98 | inactive |
| TMCC2 (transmembrane and coiled-coil domain family 2) | SID315453668 | 2.79 | inactive |
| TMCC2 (transmembrane and coiled-coil domain family 2) | SID315453668 | 0.05 | inactive |
| TMCC2 (transmembrane and coiled-coil domain family 2) | SID315453668 | -0.73 | inactive |
| TTC4 (tetratricopeptide repeat domain 4) | SID315452001 | 0.55 | inactive |
| TTC4 (tetratricopeptide repeat domain 4) | SID315452001 | 0.51 | inactive |
| TTC4 (tetratricopeptide repeat domain 4) | SID315452001 | 1.91 | inactive |
| TTC4 (tetratricopeptide repeat domain 4) | SID315452001 | 2.19 | inactive |
| DUOXA1 (dual oxidase maturation factor 1) | SID315460836 | -0.3 | inactive |
| DUOXA1 (dual oxidase maturation factor 1) | SID315460836 | -0.72 | inactive |
| DUOXA1 (dual oxidase maturation factor 1) | SID315460836 | -0.2 | inactive |
| DUOXA1 (dual oxidase maturation factor 1) | SID315460836 | -0.57 | inactive |
| MAPK4 (mitogen-activated protein kinase 4) | SID315450820 | 1.81 | inactive |
| MAPK4 (mitogen-activated protein kinase 4) | SID315450820 | -0.54 | inactive |
| MAPK4 (mitogen-activated protein kinase 4) | SID315450820 | -1.05 | inactive |
| MAPK4 (mitogen-activated protein kinase 4) | SID315450820 | 0.03 | inactive |
| FAM90A1 (family with sequence similarity 90 member A1) | SID315457435 | -0.21 | inactive |
| FAM90A1 (family with sequence similarity 90 member A1) | SID315457435 | -0.07 | inactive |
| FAM90A1 (family with sequence similarity 90 member A1) | SID315457435 | -0.11 | inactive |
| FAM90A1 (family with sequence similarity 90 member A1) | SID315457435 | 0.42 | inactive |
| ZNF227 (zinc finger protein 227) | SID315452292 | 2.48 | inactive |
| ZNF227 (zinc finger protein 227) | SID315452292 | 1.74 | inactive |
| ZNF227 (zinc finger protein 227) | SID315452292 | 1.46 | inactive |
| ZNF227 (zinc finger protein 227) | SID315452292 | 0.39 | inactive |
| TBC1D8 (TBC1 domain family member 8) | SID315454629 | 0.12 | inactive |
| TBC1D8 (TBC1 domain family member 8) | SID315454629 | 0.04 | inactive |
| TBC1D8 (TBC1 domain family member 8) | SID315454629 | -0.47 | inactive |
| TBC1D8 (TBC1 domain family member 8) | SID315454629 | -0.19 | inactive |
| NPIPB15 (nuclear pore complex interacting protein family member B15) | SID315464904 | -0.94 | inactive |
| NPIPB15 (nuclear pore complex interacting protein family member B15) | SID315464904 | -1.61 | active |
| NPIPB15 (nuclear pore complex interacting protein family member B15) | SID315464904 | -1.18 | inactive |
| NPIPB15 (nuclear pore complex interacting protein family member B15) | SID315464904 | -0.19 | inactive |
| TOR2A (torsin family 2 member A) | SID315456057 | -0.58 | inactive |
| TOR2A (torsin family 2 member A) | SID315456057 | -0.96 | inactive |
| TOR2A (torsin family 2 member A) | SID315456057 | -0.76 | inactive |
| TOR2A (torsin family 2 member A) | SID315456057 | 0.3 | inactive |
| ADH1A (alcohol dehydrogenase 1A (class I), alpha polypeptide) | SID315447199 | 0.29 | inactive |
| ADH1A (alcohol dehydrogenase 1A (class I), alpha polypeptide) | SID315447199 | 1.54 | inactive |
| ADH1A (alcohol dehydrogenase 1A (class I), alpha polypeptide) | SID315447199 | 1.36 | inactive |
| ADH1A (alcohol dehydrogenase 1A (class I), alpha polypeptide) | SID315447199 | 1.27 | inactive |
| EIF3B (eukaryotic translation initiation factor 3 subunit B) | SID315452726 | -0.8 | inactive |
| EIF3B (eukaryotic translation initiation factor 3 subunit B) | SID315452726 | -0.87 | inactive |
| EIF3B (eukaryotic translation initiation factor 3 subunit B) | SID315452726 | -0.76 | inactive |
| EIF3B (eukaryotic translation initiation factor 3 subunit B) | SID315452726 | -1.01 | inactive |
| SPRR3 (small proline rich protein 3) | SID315451618 | -0.94 | inactive |
| SPRR3 (small proline rich protein 3) | SID315451618 | 1.54 | inactive |
| SPRR3 (small proline rich protein 3) | SID315451618 | 0.18 | inactive |
| SPRR3 (small proline rich protein 3) | SID315451618 | 3.64 | active |
| CYP26C1 (cytochrome P450 family 26 subfamily C member 1) | SID315464100 | 0.81 | inactive |
| CYP26C1 (cytochrome P450 family 26 subfamily C member 1) | SID315464100 | 0.91 | inactive |
| CYP26C1 (cytochrome P450 family 26 subfamily C member 1) | SID315464100 | 0.87 | inactive |
| CYP26C1 (cytochrome P450 family 26 subfamily C member 1) | SID315464100 | 0.65 | inactive |
| SERTAD1 (SERTA domain containing 1) | SID315456240 | 1.04 | inactive |
| SERTAD1 (SERTA domain containing 1) | SID315456240 | 1.25 | inactive |
| SERTAD1 (SERTA domain containing 1) | SID315456240 | -0.25 | inactive |
| SERTAD1 (SERTA domain containing 1) | SID315456240 | 1.27 | inactive |
| SCP2D1 (SCP2 sterol binding domain containing 1) | SID315462149 | 1.67 | inactive |
| SCP2D1 (SCP2 sterol binding domain containing 1) | SID315462149 | 0.83 | inactive |
| SCP2D1 (SCP2 sterol binding domain containing 1) | SID315462149 | 1.14 | inactive |
| SCP2D1 (SCP2 sterol binding domain containing 1) | SID315462149 | 2.01 | inactive |
| OR5T1 (olfactory receptor family 5 subfamily T member 1) | SID315464617 | 2.11 | inactive |
| OR5T1 (olfactory receptor family 5 subfamily T member 1) | SID315464617 | 4.41 | active |
| OR5T1 (olfactory receptor family 5 subfamily T member 1) | SID315464617 | 1.22 | inactive |
| OR5T1 (olfactory receptor family 5 subfamily T member 1) | SID315464617 | -0.02 | inactive |
| LARP1B (La ribonucleoprotein 1B) | SID315457431 | 0.61 | inactive |
| LARP1B (La ribonucleoprotein 1B) | SID315457431 | 0.22 | inactive |
| LARP1B (La ribonucleoprotein 1B) | SID315457431 | 0.31 | inactive |
| LARP1B (La ribonucleoprotein 1B) | SID315457431 | -0.44 | inactive |
| ZNF396 (zinc finger protein 396) | SID315463405 | 0.94 | inactive |
| ZNF396 (zinc finger protein 396) | SID315463405 | 0.16 | inactive |
| ZNF396 (zinc finger protein 396) | SID315463405 | 0.79 | inactive |
| ZNF396 (zinc finger protein 396) | SID315463405 | -0.63 | inactive |
| CDK14 (cyclin dependent kinase 14) | SID315450540 | -2.02 | active |
| CDK14 (cyclin dependent kinase 14) | SID315450540 | -0.69 | inactive |
| CDK14 (cyclin dependent kinase 14) | SID315450540 | -1.14 | inactive |
| CDK14 (cyclin dependent kinase 14) | SID315450540 | -0.77 | inactive |
| CA5A (carbonic anhydrase 5A) | SID315447646 | 0.17 | inactive |
| CA5A (carbonic anhydrase 5A) | SID315447646 | 1.34 | inactive |
| CA5A (carbonic anhydrase 5A) | SID315447646 | 0.45 | inactive |
| CA5A (carbonic anhydrase 5A) | SID315447646 | 0.61 | inactive |
| TCF20 (transcription factor 20) | SID315451795 | 0.35 | inactive |
| TCF20 (transcription factor 20) | SID315451795 | -0.06 | inactive |
| TCF20 (transcription factor 20) | SID315451795 | -0.01 | inactive |
| TCF20 (transcription factor 20) | SID315451795 | 0.58 | inactive |
| GSTK1 (glutathione S-transferase kappa 1) | SID315464307 | – | inactive |
| GSTK1 (glutathione S-transferase kappa 1) | SID315464307 | 5.63 | active |
| GSTK1 (glutathione S-transferase kappa 1) | SID315464307 | 3.48 | active |
| GSTK1 (glutathione S-transferase kappa 1) | SID315464307 | 4.44 | active |
| GSTK1 (glutathione S-transferase kappa 1) | SID315464307 | 6.94 | active |
| TMEM200B (transmembrane protein 200B) | SID315464711 | -1.33 | inactive |
| TMEM200B (transmembrane protein 200B) | SID315464711 | -2.05 | active |
| TMEM200B (transmembrane protein 200B) | SID315464711 | -2 | active |
| TMEM200B (transmembrane protein 200B) | SID315464711 | -1.18 | inactive |
| CD68 (CD68 molecule) | SID315447803 | 2.22 | inactive |
| CD68 (CD68 molecule) | SID315447803 | 1.91 | inactive |
| CD68 (CD68 molecule) | SID315447803 | 0.36 | inactive |
| CD68 (CD68 molecule) | SID315447803 | 0.37 | inactive |

16 entries already listed, arranged by “TNF reporter robust z-score”, lowest first.
| Gene | PubChem SID | TNF reporter robust z-score | Call |
| --- | --- | --- | --- |
| CDK14 (cyclin dependent kinase 14) | SID315450540 | -2.02 | active |
| ZNF396 (zinc finger protein 396) | SID315463405 | -0.63 | inactive |
| LARP1B (La ribonucleoprotein 1B) | SID315457431 | -0.44 | inactive |
| OR5T1 (olfactory receptor family 5 subfamily T member 1) | SID315464617 | -0.02 | inactive |
| ZNF396 (zinc finger protein 396) | SID315463405 | 0.16 | inactive |
| LARP1B (La ribonucleoprotein 1B) | SID315457431 | 0.22 | inactive |
| LARP1B (La ribonucleoprotein 1B) | SID315457431 | 0.31 | inactive |
| LARP1B (La ribonucleoprotein 1B) | SID315457431 | 0.61 | inactive |
| ZNF396 (zinc finger protein 396) | SID315463405 | 0.79 | inactive |
| SCP2D1 (SCP2 sterol binding domain containing 1) | SID315462149 | 0.83 | inactive |
| ZNF396 (zinc finger protein 396) | SID315463405 | 0.94 | inactive |
| SCP2D1 (SCP2 sterol binding domain containing 1) | SID315462149 | 1.14 | inactive |
| OR5T1 (olfactory receptor family 5 subfamily T member 1) | SID315464617 | 1.22 | inactive |
| SCP2D1 (SCP2 sterol binding domain containing 1) | SID315462149 | 2.01 | inactive |
| OR5T1 (olfactory receptor family 5 subfamily T member 1) | SID315464617 | 2.11 | inactive |
| OR5T1 (olfactory receptor family 5 subfamily T member 1) | SID315464617 | 4.41 | active |
